Experimental data published in patent US20230202981A1, “NOVEL SMALL MOLECULES FOR TARGETED DEGRADATION OF UNTARGETABLE KRAS IN CANCER THERAPY” (Pillai Universal LLC, priority 2020, published 2023).
For part of these data: The name of at least one read-out is uncertain. Some of these results come from one statement about several compounds together.

Columns and labels:
[1] = test system: GTP-KRAS in KRAS G12C, G12V, G12D, and G13D mutant cells; test: RAS activation assay, formation of GTP-bound KRAS in mutant cells; type: cell-based
Text: Actually, mutant KRAS would interfere the balance between GEFs and GAPs, resulting in locking in the active GTP-bound KRAS state and aberrant stimulation of its downstream signaling.

[2] = Crossing blood-brain barrier: pharmacokinetics in brain regions; type: in vivo

CC(C)(C)C(=O)c1cncc(C(=O)C2CC=C(C(N)=O)N2)c1 (stereo not drawn) [Compound 4]
GTP-KRAS accumulation on binding with KRAS [1]: promotes accumulation of GTP-KRAS

C=Cc1cc(C(=O)C2CC=C(C(N)=O)N2)cnc1C(=O)C(C)C (stereo not drawn) [Compound 3]
GTP-KRAS accumulation on binding with KRAS [1]: promotes accumulation of GTP-KRAS

COC(=O)Nc1cc(C(=O)C2CC=CC2)cnc1C(N)=O [Compound 5]
GTP-KRAS accumulation on binding with KRAS [1]: promotes accumulation of GTP-KRAS

CCCCc1ncc(C(=O)C2CC=C(C(N)=O)N2)cc1C(=O)OCC (stereo not drawn) [Compound 1]
Cmax ([2]; Brainstem): 185.74 ± 3.46 ng/g, ng/mL
Cmax ([2]; Cortex): 276.52 ± 48.17 ng/g, ng/mL
Cmax ([2]; Hippocampus): 223.48 ± 34.72 ng/g, ng/mL
Cmax ([2]; Hypothalamus): 203.88 ± 42.33 ng/g, ng/mL
Cmax ([2]; Striatum): 200.02 ± 30.90 ng/g, ng/mL

NC(=O)C1CC=C(C(=O)c2cncc(C(=O)Oc3ccncc3)c2)N1 (stereo not drawn) [Compound 2]
GTP-KRAS accumulation on binding with KRAS [1]: promotes accumulation of GTP-KRAS
